Laboratory results as given in PMC13627691.
Results are given in words; binding and its absence hold for the method and conditions named. Some entries that bind do so weakly or less than the wild type. Where a sequence is shown, tags or fusion partners need not be part of it.

Amino acid sequences for entries named in this document (tags omitted).
UniProt Q2TAZ0: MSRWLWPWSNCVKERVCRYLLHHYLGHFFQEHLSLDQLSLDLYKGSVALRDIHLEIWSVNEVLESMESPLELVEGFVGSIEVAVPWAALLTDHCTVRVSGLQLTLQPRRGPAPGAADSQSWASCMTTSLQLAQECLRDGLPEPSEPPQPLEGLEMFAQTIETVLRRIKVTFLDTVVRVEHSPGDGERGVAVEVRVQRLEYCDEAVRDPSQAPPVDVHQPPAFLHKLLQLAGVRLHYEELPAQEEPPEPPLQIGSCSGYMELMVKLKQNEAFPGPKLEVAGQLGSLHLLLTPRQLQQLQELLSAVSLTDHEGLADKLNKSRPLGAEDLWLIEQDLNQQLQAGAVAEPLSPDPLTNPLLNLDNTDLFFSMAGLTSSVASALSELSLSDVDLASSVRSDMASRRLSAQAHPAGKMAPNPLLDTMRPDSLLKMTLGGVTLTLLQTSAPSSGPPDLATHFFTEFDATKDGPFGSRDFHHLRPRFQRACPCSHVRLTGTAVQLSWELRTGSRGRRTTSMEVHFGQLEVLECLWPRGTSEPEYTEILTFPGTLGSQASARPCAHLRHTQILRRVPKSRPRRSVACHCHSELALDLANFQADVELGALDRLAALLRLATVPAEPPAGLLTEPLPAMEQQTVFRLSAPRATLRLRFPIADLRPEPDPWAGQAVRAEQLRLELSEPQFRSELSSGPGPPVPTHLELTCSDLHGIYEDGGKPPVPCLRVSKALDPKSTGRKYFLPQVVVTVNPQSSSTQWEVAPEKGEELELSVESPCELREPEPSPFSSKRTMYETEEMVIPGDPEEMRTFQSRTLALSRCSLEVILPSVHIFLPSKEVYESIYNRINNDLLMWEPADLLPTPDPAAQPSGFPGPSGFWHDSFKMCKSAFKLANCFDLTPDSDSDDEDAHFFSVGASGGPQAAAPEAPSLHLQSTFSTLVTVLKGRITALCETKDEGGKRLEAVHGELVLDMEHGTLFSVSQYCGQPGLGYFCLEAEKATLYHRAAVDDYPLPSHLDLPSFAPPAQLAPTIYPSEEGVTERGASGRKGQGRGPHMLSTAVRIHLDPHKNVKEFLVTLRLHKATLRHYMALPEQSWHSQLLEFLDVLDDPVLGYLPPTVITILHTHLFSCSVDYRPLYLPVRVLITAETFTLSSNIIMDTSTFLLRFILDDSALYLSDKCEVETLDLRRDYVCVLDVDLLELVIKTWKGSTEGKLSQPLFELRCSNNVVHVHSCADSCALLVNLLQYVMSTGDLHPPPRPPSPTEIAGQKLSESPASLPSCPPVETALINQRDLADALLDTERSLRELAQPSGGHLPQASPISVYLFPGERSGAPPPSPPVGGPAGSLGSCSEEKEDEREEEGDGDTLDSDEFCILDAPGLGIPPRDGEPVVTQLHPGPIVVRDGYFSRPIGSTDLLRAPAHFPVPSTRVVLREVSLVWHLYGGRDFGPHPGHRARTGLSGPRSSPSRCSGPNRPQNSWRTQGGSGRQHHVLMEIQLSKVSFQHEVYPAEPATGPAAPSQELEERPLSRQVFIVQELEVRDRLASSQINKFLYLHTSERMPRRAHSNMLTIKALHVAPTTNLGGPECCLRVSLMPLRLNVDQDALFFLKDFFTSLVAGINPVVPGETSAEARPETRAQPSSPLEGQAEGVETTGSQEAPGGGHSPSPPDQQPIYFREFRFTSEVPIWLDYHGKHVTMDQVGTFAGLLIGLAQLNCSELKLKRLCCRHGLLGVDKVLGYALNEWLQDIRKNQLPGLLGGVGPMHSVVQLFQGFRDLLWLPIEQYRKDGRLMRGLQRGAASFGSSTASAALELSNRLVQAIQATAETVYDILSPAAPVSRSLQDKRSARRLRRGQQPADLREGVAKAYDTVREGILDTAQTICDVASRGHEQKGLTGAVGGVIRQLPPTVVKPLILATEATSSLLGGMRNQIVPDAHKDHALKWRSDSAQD

Columns and labels:
[1] = molecular target: 3xFLAG-tagged ATG2A (3XFLAG-TEV-ATG2A) (not stated (the printed accession is a human entry)) (UniProt Q2TAZ0); test: pull-down; FLAG trap beads coated with 3xFLAG-ATG2A, 5 µM 6xHIS-tagged prey, 1 h at room temperature, SEC300 (25 mM HEPES pH 7.5, 300 mM NaCl, 1 mM TCEP); low-salt and high-salt (500 mM NaCl wash) fractions; western blot; both purified
[2] = molecular target: 3xFLAG-tagged ATG2A (3XFLAG-TEV-ATG2A) (not stated (the printed accession is a human entry)) (UniProt Q2TAZ0); test: SEC; analytical SEC, Superose 6 Increase 3.2/300, 25 mM HEPES pH 8.0, 300 mM NaCl, 1 mM TCEP; 4 µM 3XFLAG-TEV-ATG2A and 4.8 µM 6XHIS-WIPI4 mixed 2 h on ice; fractions by western blot; both purified

binding [1]: binds weakly | binding [2]: binds weakly
B1: 6xHIS-tagged WIPI4 (protein, UniProt Q9Y484 1-360)
chain: MTQQPLRGVTSLRFNQDQSCFCCAMETGVRIYNVEPLMEKGHLDHEQVGSMGLVEMLHRSNLLALVGGGSSPKFSEISVLIWDDAREGKDSKEKLVLEFTFTKPVLSVRMRHDKIVIVLKNRIYVYSFPDNPRKLFEFDTRDNPKGLCDLCPSLEKQLLVFPGHKCGSLQLVDLASTKPGTSSAPFTINAHQSDIACVSLNQPGTVVASASQKGTLIRLFDTQSKEKLVELRRGTDPATLYCINFSHDSSFLCASSDKGTVHIFALKDTRLNRRSALARVGKVGPMIGQYVDSQWSLASFTVPAESACICAFGRNTSKNVNSVIAICVDGTFHKYVFTPDGNCNREAFDVYLDICDDDDF
